Reference: article PMC5109252
These are yes or no findings as the source states them, for the method shown. Binding seen in cells or lysates may run through a third protein. Some results given as binding are weak or reduced against the parent protein; the word gives no strength. For part of these data: Sequences can lack the tags named with a protein. Each block holds one binder with its values, some of them ahead of it.

Experiments:
FLAG-FoxM1 = target: T1, FLAG-FoxM1 (UniProt Q08050); experiment: co-IP; protein-protein ChIP: transfected HEK-293T cells cross-linked, soluble chromatin fraction immunoprecipitated with FLAG M2 beads, western blot; empty plasmid as control; normoxic and hypoxic conditions (Fig. 7A)
T1 sequence: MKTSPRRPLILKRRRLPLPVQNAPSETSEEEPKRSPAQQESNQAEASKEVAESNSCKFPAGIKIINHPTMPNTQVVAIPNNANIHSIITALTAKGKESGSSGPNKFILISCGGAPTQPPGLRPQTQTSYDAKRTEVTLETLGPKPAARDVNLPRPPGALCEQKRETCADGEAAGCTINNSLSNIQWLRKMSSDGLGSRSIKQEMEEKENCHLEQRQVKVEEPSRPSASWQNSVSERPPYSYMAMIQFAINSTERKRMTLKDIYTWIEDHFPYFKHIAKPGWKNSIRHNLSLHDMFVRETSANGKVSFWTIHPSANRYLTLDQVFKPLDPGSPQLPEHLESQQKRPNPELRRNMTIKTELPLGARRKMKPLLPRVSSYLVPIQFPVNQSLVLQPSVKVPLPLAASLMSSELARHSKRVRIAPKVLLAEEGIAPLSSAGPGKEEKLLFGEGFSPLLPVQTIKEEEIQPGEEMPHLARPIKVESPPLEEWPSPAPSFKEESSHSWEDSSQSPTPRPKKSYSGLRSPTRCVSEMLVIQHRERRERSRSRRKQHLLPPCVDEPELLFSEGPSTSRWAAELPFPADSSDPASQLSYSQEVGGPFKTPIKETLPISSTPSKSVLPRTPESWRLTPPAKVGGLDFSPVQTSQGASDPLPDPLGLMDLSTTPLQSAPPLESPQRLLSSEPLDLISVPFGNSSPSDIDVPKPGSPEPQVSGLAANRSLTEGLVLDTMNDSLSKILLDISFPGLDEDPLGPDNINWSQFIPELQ

[1] = target: T2, endogenous FoxM1 (whole cell lysate, cells not named) (human (endogenous; all cell lines of the paper are human)) (UniProt Q08050); experiment: co-IP; endogenous proteins; cells lysed in RIPA buffer; pre-cleared lysate incubated overnight at 4 C with FoxM1 antibody on protein A/G beads or beads only as control; western blot
T2 sequence: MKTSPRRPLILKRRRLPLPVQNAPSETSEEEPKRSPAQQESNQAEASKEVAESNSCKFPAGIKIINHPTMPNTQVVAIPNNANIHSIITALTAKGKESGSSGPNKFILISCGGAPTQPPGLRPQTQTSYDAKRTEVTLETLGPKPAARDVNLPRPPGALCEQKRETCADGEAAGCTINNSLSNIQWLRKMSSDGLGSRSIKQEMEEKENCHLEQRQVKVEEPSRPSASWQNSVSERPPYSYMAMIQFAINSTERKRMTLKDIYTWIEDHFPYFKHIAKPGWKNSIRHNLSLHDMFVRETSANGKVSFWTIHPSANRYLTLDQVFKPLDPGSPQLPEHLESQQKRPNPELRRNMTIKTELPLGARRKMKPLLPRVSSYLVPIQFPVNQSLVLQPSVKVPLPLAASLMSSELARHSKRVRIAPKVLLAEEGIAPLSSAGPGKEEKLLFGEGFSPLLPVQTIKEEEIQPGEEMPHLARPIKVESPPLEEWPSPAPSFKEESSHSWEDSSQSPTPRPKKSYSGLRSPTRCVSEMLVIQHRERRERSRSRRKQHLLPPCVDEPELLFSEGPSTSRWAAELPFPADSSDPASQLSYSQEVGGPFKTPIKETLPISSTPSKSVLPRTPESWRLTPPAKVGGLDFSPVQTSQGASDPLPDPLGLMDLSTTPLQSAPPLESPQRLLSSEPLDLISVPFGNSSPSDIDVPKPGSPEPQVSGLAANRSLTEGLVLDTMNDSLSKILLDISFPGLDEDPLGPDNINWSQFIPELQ

FLAG-SETD3 = target: T3, FLAG-SETD3 (UniProt Q86TU7); experiment: co-IP; protein-protein ChIP: transfected HEK-293T cells cross-linked, soluble chromatin fraction immunoprecipitated with FLAG M2 beads, western blot; empty plasmid as control; normoxic and hypoxic conditions (Fig. 7A)
T3 sequence: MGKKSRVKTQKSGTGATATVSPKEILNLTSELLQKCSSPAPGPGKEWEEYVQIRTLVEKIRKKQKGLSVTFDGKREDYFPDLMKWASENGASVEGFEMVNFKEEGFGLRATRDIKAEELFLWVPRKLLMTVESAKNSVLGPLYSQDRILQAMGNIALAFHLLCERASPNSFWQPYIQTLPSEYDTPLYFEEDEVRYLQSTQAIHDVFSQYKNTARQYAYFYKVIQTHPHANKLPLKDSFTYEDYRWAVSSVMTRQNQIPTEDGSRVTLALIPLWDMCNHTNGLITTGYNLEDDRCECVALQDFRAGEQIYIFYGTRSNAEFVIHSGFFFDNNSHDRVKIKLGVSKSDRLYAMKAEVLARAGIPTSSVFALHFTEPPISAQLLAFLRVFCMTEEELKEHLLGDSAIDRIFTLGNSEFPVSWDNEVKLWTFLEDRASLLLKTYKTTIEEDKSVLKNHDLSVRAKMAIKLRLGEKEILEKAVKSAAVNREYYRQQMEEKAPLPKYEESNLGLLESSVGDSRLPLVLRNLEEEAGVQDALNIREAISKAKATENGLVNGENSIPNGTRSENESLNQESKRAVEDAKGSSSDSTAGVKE

binding (FLAG-FoxM1): binds
B1: HA-SETD3 (enzyme, UniProt Q86TU7 1-594)
chain: MGKKSRVKTQKSGTGATATVSPKEILNLTSELLQKCSSPAPGPGKEWEEYVQIRTLVEKIRKKQKGLSVTFDGKREDYFPDLMKWASENGASVEGFEMVNFKEEGFGLRATRDIKAEELFLWVPRKLLMTVESAKNSVLGPLYSQDRILQAMGNIALAFHLLCERASPNSFWQPYIQTLPSEYDTPLYFEEDEVRYLQSTQAIHDVFSQYKNTARQYAYFYKVIQTHPHANKLPLKDSFTYEDYRWAVSSVMTRQNQIPTEDGSRVTLALIPLWDMCNHTNGLITTGYNLEDDRCECVALQDFRAGEQIYIFYGTRSNAEFVIHSGFFFDNNSHDRVKIKLGVSKSDRLYAMKAEVLARAGIPTSSVFALHFTEPPISAQLLAFLRVFCMTEEELKEHLLGDSAIDRIFTLGNSEFPVSWDNEVKLWTFLEDRASLLLKTYKTTIEEDKSVLKNHDLSVRAKMAIKLRLGEKEILEKAVKSAAVNREYYRQQMEEKAPLPKYEESNLGLLESSVGDSRLPLVLRNLEEEAGVQDALNIREAISKAKATENGLVNGENSIPNGTRSENESLNQESKRAVEDAKGSSSDSTAGVKE

binding [1]: binds
B2: endogenous SETD3 (whole cell lysate, cells not named) (enzyme, UniProt Q86TU7 1-594)
chain: MGKKSRVKTQKSGTGATATVSPKEILNLTSELLQKCSSPAPGPGKEWEEYVQIRTLVEKIRKKQKGLSVTFDGKREDYFPDLMKWASENGASVEGFEMVNFKEEGFGLRATRDIKAEELFLWVPRKLLMTVESAKNSVLGPLYSQDRILQAMGNIALAFHLLCERASPNSFWQPYIQTLPSEYDTPLYFEEDEVRYLQSTQAIHDVFSQYKNTARQYAYFYKVIQTHPHANKLPLKDSFTYEDYRWAVSSVMTRQNQIPTEDGSRVTLALIPLWDMCNHTNGLITTGYNLEDDRCECVALQDFRAGEQIYIFYGTRSNAEFVIHSGFFFDNNSHDRVKIKLGVSKSDRLYAMKAEVLARAGIPTSSVFALHFTEPPISAQLLAFLRVFCMTEEELKEHLLGDSAIDRIFTLGNSEFPVSWDNEVKLWTFLEDRASLLLKTYKTTIEEDKSVLKNHDLSVRAKMAIKLRLGEKEILEKAVKSAAVNREYYRQQMEEKAPLPKYEESNLGLLESSVGDSRLPLVLRNLEEEAGVQDALNIREAISKAKATENGLVNGENSIPNGTRSENESLNQESKRAVEDAKGSSSDSTAGVKE

binding (FLAG-SETD3): binds
B3: endogenous FoxM1 (HEK-293T chromatin fraction) (protein, UniProt Q08050 1-763)
chain: MKTSPRRPLILKRRRLPLPVQNAPSETSEEEPKRSPAQQESNQAEASKEVAESNSCKFPAGIKIINHPTMPNTQVVAIPNNANIHSIITALTAKGKESGSSGPNKFILISCGGAPTQPPGLRPQTQTSYDAKRTEVTLETLGPKPAARDVNLPRPPGALCEQKRETCADGEAAGCTINNSLSNIQWLRKMSSDGLGSRSIKQEMEEKENCHLEQRQVKVEEPSRPSASWQNSVSERPPYSYMAMIQFAINSTERKRMTLKDIYTWIEDHFPYFKHIAKPGWKNSIRHNLSLHDMFVRETSANGKVSFWTIHPSANRYLTLDQVFKPLDPGSPQLPEHLESQQKRPNPELRRNMTIKTELPLGARRKMKPLLPRVSSYLVPIQFPVNQSLVLQPSVKVPLPLAASLMSSELARHSKRVRIAPKVLLAEEGIAPLSSAGPGKEEKLLFGEGFSPLLPVQTIKEEEIQPGEEMPHLARPIKVESPPLEEWPSPAPSFKEESSHSWEDSSQSPTPRPKKSYSGLRSPTRCVSEMLVIQHRERRERSRSRRKQHLLPPCVDEPELLFSEGPSTSRWAAELPFPADSSDPASQLSYSQEVGGPFKTPIKETLPISSTPSKSVLPRTPESWRLTPPAKVGGLDFSPVQTSQGASDPLPDPLGLMDLSTTPLQSAPPLESPQRLLSSEPLDLISVPFGNSSPSDIDVPKPGSPEPQVSGLAANRSLTEGLVLDTMNDSLSKILLDISFPGLDEDPLGPDNINWSQFIPELQ
